PubChem BioAssay AID1259424 | University of Nebraska Medical Center | 2018
The whole screen tested about 14,000 reagents; below is a random part of them. 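Higher correlation or smaller distance means closer resemblance to KSR1 loss; control wells, including KSR1 knockdowns, recur on many plates.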 Not all columns of the deposit are shown. The record does not give: the time to read-out.

Assay: 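Rank knockdowns across the genome by resemblance to the KSR1 depletion profile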 (primary screen)
Cells: human HCT116 colon cancer cells
Knock-down reagent: siRNA pool against human genes, 50 nM
Detection: 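Six signature mRNAs by branched-DNA multiplex assay, scaled to two housekeeping genes and non-targeting median, log2; matched to mean KSR1 knockdown profile by Pearson correlation and euclidean distance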
Scale: mean correlation with KSR1 profile: higher = expression change more like KSR1 knockdown

{"Target gene": "RUFY3", "mean correlation with KSR1 profile": -0.0642}
{"Target gene": "NEUROD2", "mean correlation with KSR1 profile": 0.601}
{"Target gene": "CHI3L1", "mean correlation with KSR1 profile": 0.023}
{"Target gene": "CELF1", "mean correlation with KSR1 profile": 0.864}
{"Target gene": "CASKIN2", "mean correlation with KSR1 profile": -0.175}
{"Target gene": "CYTIP", "mean correlation with KSR1 profile": -0.569}
{"Target gene": "ZNF416", "mean correlation with KSR1 profile": -0.535}
{"Target gene": "TCHP", "mean correlation with KSR1 profile": 0.183}
{"Target gene": "APC2", "mean correlation with KSR1 profile": 0.0453}
{"Target gene": "IFNGR1", "mean correlation with KSR1 profile": -0.00461}
{"Target gene": "CCDC7", "mean correlation with KSR1 profile": 0.379}
{"Target gene": "MYL3", "mean correlation with KSR1 profile": -0.652}
{"Target gene": "LRRFIP1", "mean correlation with KSR1 profile": 0.0179}
{"Target gene": "CSNK2A1", "mean correlation with KSR1 profile": -0.202}
{"Target gene": "RP9", "mean correlation with KSR1 profile": -0.251}

2 consecutive reagents from above, quoted:
{"Target gene": "CELF1", "mean correlation with KSR1 profile": 0.864}
{"Target gene": "CASKIN2", "mean correlation with KSR1 profile": -0.175}

The list goes on:
{"Target gene": "STAC", "mean correlation with KSR1 profile": 0.196}
{"Target gene": "GABARAPL2", "mean correlation with KSR1 profile": -0.518}
{"Target gene": "NDFIP1", "mean correlation with KSR1 profile": 0.269}
{"Target gene": "CRY1", "mean correlation with KSR1 profile": 0.918}
{"Target gene": "RBL1", "mean correlation with KSR1 profile": 0.361}
{"Target gene": "ZNF407", "mean correlation with KSR1 profile": -0.407}
{"Target gene": "CDIP1", "mean correlation with KSR1 profile": 0.428}
{"Target gene": "KHK", "mean correlation with KSR1 profile": 0.581}
{"Target gene": "PCDHGA4", "mean correlation with KSR1 profile": 0.366}
{"Target gene": "CRELD1", "mean correlation with KSR1 profile": 0.707}
{"Target gene": "NUDT6", "mean correlation with KSR1 profile": -0.0652}
{"Target gene": "NPAS1", "mean correlation with KSR1 profile": -0.212}
{"Target gene": "AP5Z1", "mean correlation with KSR1 profile": -0.235}
{"Target gene": "LTF", "mean correlation with KSR1 profile": 0.317}
{"Target gene": "ELOVL1", "mean correlation with KSR1 profile": -0.302}
{"Target gene": "WFS1", "mean correlation with KSR1 profile": -0.51}
{"Target gene": "HSPA14", "mean correlation with KSR1 profile": 0.443}
{"Target gene": "CLEC4E", "mean correlation with KSR1 profile": -0.155}
{"Target gene": "CPAP", "mean correlation with KSR1 profile": -0.699}
{"Target gene": "CASP5", "mean correlation with KSR1 profile": -0.12}
{"Target gene": "TNFRSF11A", "mean correlation with KSR1 profile": 0.23}
